# Percent effect of library compounds

Chains of the proteins cited; added tags and fusions are not shown.
UniProt P9WFT3, whole entry: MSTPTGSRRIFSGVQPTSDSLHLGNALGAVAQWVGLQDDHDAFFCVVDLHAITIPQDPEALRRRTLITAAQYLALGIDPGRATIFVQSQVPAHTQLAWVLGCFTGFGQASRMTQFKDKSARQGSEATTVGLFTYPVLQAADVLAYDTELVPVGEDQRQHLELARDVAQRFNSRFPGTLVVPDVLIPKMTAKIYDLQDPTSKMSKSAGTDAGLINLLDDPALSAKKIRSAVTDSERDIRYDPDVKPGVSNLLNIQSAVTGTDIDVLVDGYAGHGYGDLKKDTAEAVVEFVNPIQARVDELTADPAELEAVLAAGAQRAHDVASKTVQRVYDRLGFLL
UniProt P9WPC5, whole entry: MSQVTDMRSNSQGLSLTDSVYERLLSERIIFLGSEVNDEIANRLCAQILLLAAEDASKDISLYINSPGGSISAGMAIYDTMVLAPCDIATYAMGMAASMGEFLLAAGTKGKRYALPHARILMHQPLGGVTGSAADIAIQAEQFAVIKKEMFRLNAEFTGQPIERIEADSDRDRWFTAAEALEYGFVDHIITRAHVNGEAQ
UniProt P9WPC3, whole entry partner: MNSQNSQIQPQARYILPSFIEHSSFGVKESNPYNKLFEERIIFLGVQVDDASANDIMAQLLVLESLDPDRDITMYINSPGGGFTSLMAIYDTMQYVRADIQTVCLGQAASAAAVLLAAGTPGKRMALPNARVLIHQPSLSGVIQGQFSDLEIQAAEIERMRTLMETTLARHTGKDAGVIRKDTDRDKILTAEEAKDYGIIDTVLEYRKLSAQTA
UniProt P9WNZ1, whole entry: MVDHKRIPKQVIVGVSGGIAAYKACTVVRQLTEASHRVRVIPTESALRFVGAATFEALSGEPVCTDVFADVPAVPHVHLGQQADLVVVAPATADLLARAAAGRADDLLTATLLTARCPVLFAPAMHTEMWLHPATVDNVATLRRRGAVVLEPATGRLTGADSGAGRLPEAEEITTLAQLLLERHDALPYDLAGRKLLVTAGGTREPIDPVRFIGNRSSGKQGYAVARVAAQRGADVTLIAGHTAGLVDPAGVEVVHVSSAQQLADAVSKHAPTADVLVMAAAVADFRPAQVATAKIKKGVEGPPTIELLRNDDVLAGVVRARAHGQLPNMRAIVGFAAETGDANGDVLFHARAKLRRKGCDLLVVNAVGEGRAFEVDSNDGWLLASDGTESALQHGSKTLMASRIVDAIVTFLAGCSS
UniProt I6X8D2, whole entry: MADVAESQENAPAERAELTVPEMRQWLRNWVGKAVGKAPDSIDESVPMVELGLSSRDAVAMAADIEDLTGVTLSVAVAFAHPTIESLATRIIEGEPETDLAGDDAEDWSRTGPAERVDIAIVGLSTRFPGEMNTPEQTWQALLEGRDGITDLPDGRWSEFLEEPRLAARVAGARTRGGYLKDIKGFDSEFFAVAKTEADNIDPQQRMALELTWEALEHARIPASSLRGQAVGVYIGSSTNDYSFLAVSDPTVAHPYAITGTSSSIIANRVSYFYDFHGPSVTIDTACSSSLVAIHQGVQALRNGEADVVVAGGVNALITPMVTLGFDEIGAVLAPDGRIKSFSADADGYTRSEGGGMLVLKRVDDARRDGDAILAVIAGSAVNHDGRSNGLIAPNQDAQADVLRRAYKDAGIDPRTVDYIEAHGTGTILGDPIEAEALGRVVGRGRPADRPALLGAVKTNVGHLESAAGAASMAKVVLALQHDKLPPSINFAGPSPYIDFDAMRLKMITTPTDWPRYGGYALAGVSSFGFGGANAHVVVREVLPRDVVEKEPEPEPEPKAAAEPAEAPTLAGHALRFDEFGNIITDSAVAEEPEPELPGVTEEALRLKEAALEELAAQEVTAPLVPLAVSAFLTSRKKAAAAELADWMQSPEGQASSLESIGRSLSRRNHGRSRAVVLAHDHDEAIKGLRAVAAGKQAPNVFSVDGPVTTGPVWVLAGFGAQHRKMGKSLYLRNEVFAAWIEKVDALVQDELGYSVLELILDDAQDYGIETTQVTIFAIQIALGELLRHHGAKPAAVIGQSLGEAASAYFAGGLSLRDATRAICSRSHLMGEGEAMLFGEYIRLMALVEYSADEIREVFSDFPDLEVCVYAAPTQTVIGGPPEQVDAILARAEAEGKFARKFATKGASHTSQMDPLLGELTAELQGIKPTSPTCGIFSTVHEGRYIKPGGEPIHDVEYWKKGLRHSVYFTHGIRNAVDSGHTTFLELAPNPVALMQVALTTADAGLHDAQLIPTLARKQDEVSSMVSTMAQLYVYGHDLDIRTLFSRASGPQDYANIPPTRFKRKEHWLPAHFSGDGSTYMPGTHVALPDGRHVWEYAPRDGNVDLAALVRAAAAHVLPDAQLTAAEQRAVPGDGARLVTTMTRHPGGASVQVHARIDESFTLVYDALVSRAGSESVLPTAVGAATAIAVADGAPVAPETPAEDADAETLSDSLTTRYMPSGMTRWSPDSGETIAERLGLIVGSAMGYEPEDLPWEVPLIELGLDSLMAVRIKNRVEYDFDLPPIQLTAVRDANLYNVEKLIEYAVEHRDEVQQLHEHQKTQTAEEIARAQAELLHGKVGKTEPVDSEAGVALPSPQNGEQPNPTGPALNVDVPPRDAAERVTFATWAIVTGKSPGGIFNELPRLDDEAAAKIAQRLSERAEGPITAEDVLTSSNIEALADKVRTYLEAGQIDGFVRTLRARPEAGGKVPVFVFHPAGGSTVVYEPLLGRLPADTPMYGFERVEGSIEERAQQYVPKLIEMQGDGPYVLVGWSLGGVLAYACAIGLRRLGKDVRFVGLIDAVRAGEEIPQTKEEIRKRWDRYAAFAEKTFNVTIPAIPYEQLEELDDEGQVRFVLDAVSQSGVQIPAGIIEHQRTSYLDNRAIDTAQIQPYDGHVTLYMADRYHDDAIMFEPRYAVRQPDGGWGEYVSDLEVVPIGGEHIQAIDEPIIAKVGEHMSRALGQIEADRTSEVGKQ

From ChEMBL document CHEMBL3988442, “University of Dundee, Small-Polar-MMV Screening Library” (2021).

Results are given as percent effect. The record does not define 0% and 100%; most values in the screen are far below 50% and negative numbers occur (in some assays of this library far below -100). Compounds were drawn at random from those tested, without regard to their results. A dash means the value is not listed here; it may have been measured.

MtTrpRS: 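Tryptophan-tRNA ligase, Mycobacterium tuberculosis (UniProt P9WFT3). Enzyme assay of tryptophanyl-tRNA synthetase; the read-out is not stated. Concentration: 10 µM. Higher most likely means stronger inhibition; the record gives no direction and few retests gave an IC50. About 65,000 compounds were tested under these conditions; 0.098% (about 64) showed 50% or more at least once.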
Toxoplasma: 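Assay of Toxoplasma gondii numbers, read through their beta-galactosidase reporter with a colour substrate. Tested at 10 µM. Higher reads as fewer parasites (inferred from which compounds were picked for retests). About 67,000 compounds were tested under these conditions; 0.38% (about 260) showed 50% or more at least once.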
ClpP1P2: 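Protease assay of ClpP1P2, read by the AMC dye that it sets free. Target: ClpP1P2, Mycobacterium tuberculosis (UniProt P9WPC5 and UniProt P9WPC3). Compounds at 50 µM. Higher reads as stronger inhibition, judged from the few compounds that gave an IC50. Most other retested compounds had strongly negative values. Of about 69,000 compounds tested this way, about 10 (0.015%) reached 50% or more in at least one test.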
CoaBC: 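Enzyme assay of CoaBC with a phosphate dye (Biomol Green) read at 650 nm. Target: Coenzyme A biosynthesis protein CoaBC, Mycobacterium tuberculosis (UniProt P9WNZ1). Tested at 30 µM. Direction is inferred from only a few compounds that gave an IC50; most scored high, so higher reads as stronger inhibition. Most strong results did not repeat in a second test. Size under these conditions: about 67,000 compounds, about 40 of them at 50% or above in at least one test.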
Pks13 thioesterase: 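Enzyme assay of the thioesterase domain of polyketide synthase 13; the read-out is not stated. Target: Polyketide synthase Pks13, Mycobacterium tuberculosis (UniProt I6X8D2). Tested at 30 µM. Higher reads as stronger inhibition (inferred from which compounds were picked for retests). Of about 67,000 compounds tested this way, about 300 (0.46%) reached 50% or more in at least one test.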

* COCCOCC(=O)N(Cc1cccc(C)c1)C(C)C : MtTrpRS: 1.547%; Toxoplasma: -1.035%; ClpP1P2: -4.802%; CoaBC: 2.811%; Pks13 thioesterase: -31.36%
* CC(NC(=O)NCCCN1CCCC1=O)c1ccc(Cl)s1 (stereo unspecified) : MtTrpRS: -1.332%; Toxoplasma: -11.16%; ClpP1P2: -3.613%; CoaBC: 6.048%; Pks13 thioesterase: 13.24%
* COCc1nccc(C2CCCN(Cc3cccc(C#N)c3)C2)n1 (stereo unspecified) : MtTrpRS: 2.386%; Toxoplasma: -0.8021%; ClpP1P2: 15.93%; CoaBC: 7.662%
* O=C(c1cnn2cc(CCO)cnc12)N1CCOC(C(F)(F)F)C1 (stereo unspecified) : MtTrpRS: -5.576%; Toxoplasma: -2.259%; ClpP1P2: 8.637%; CoaBC: 2.581%; Pks13 thioesterase: -8.042%
* CCCOc1cc(F)ccc1NC(=O)NCc1noc(C)n1 : MtTrpRS: 3.524%; Toxoplasma: -5.887%; ClpP1P2: -15.93%; CoaBC: 1.648%; Pks13 thioesterase: -22.22%
* O=C(NC1CCS(=O)(=O)C1)c1sccc1OC(F)F (stereo unspecified) : MtTrpRS: -1.2%; Toxoplasma: -6.304%; ClpP1P2: -0.5814%; CoaBC: -5.72%; Pks13 thioesterase: -21.06%
* c1cncc(O[C@@H]2CC[C@H]3[C@H]2OCCN3C2CCCC2)c1 : MtTrpRS: 1.201%; ClpP1P2: -22.27%; CoaBC: 6.042%; Pks13 thioesterase: -7.521%
* Cc1cccc(NC(=O)N2CCCn3cnc(CN(C)C(C)C)c3C2)c1.O=C(O)C(F)(F)F : Toxoplasma: 31.13%
* [H][C@@]12CCCO[C@]1([H])[C@H](N1CCOCC1)CN(C(=O)c1cccn1C)C2 : Toxoplasma: 0.378%
* O=C(C(CNCc1cccc(O)c1)c1ccccc1)N1CCOCC1 (stereo unspecified) : MtTrpRS: -2.776%; Toxoplasma: 0.5902%; ClpP1P2: -20.29%; CoaBC: 3.046%; Pks13 thioesterase: -15.65%
* CCn1ncnc1CN1CCC(CNC(=O)c2cccc(C)c2)C1 (stereo unspecified) : MtTrpRS: 1.908%; Toxoplasma: 18.5%; ClpP1P2: 8.382%; CoaBC: 3.008%; Pks13 thioesterase: -14.99%
* Cc1cnccc1N1CCCN(C(=O)CCCS(N)(=O)=O)CC1 : MtTrpRS: 3.065%; Toxoplasma: -0.2189%; ClpP1P2: -12.12%; CoaBC: -8.742%; Pks13 thioesterase: -34.29%
* Cc1ccc(-c2ncc(CN3CCOC(c4ccco4)C3)s2)o1 (stereo unspecified) : MtTrpRS: 0.3173%; Toxoplasma: 0.6676%; ClpP1P2: -2.968%; CoaBC: 0.7444%; Pks13 thioesterase: 8.4%
* Cc1noc(C)c1CN1CCC(c2nnc(Cn3cccn3)n2C)CC1 : MtTrpRS: 3.819%; Toxoplasma: -12.17%; ClpP1P2: -25.22%; CoaBC: 0.5102%; Pks13 thioesterase: -3.496%
* CC(C)N(C)Cc1cncc2c1CCN(C(=O)c1ccc[nH]1)C2 : MtTrpRS: -0.6342%; ClpP1P2: -11.79%; CoaBC: -3.594%; Pks13 thioesterase: -12.97%
* [H][C@]12C[C@H](C(=O)NCC3CC3)N(C(C)C)[C@@]1([H])CN(Cc1ccco1)C2 : Toxoplasma: -35.33%
* CCC(C)Sc1nncn1-c1ccc(OC)nc1 (stereo unspecified) : MtTrpRS: 0.7965%; Toxoplasma: 12.79%; ClpP1P2: 0.7957%; CoaBC: 2.066%; Pks13 thioesterase: -14.45%
* COCCNC(=O)[C@]12COC[C@H]1CN(c1cc(OC)ncn1)C2 : MtTrpRS: -0.07047%; ClpP1P2: -2.577%; CoaBC: 4.017%; Pks13 thioesterase: -2.57%
* Cc1csc(CNc2cnn(CC(F)(F)F)c2)n1 : MtTrpRS: -0.2366%; Toxoplasma: 3.885%; ClpP1P2: -3.31%; CoaBC: 0.1255%; Pks13 thioesterase: -4.888%
* C[C@H](NC(=O)C1(N(C)Cc2ccccc2)Cc2ccccc2C1)C(N)=O : MtTrpRS: -1.844%; Toxoplasma: 4.225%; ClpP1P2: -12.58%; CoaBC: 10.68%; Pks13 thioesterase: -17.47%
* CC(C)[C@H]1CN(Cc2ccccn2)C[C@@H]1NS(=O)(=O)C1CC1 : MtTrpRS: 6.388%; Toxoplasma: 6.323%; ClpP1P2: -8.773%; CoaBC: 2.746%; Pks13 thioesterase: -6.247%
* FC(F)(F)c1cccc(CNc2nccc(C(F)(F)F)n2)c1 : MtTrpRS: -3.531%; Toxoplasma: 6.252%; ClpP1P2: -34.08%; CoaBC: -0.3492%; Pks13 thioesterase: 6.044%
* CC(CN1CCC2(CC1)N=C(N(C)C)NC2=O)c1ccccc1 (stereo unspecified) : MtTrpRS: -9.598%; Toxoplasma: 0.918%; ClpP1P2: 2.332%; CoaBC: 3.571%; Pks13 thioesterase: -45.57%
* Cc1cc(C(=O)N2CCc3c(CN(C)C)nn(C)c3C2)[nH]n1 : MtTrpRS: -4.146%; Toxoplasma: -28%; ClpP1P2: 2.448%; CoaBC: 3.529%; Pks13 thioesterase: -14.66%
* CC1CCN(c2ccc(=O)n(CC(=O)N(C)Cc3ccccc3)n2)CC1 : MtTrpRS: 1.052%; Toxoplasma: 3.048%; ClpP1P2: -2.586%; CoaBC: -7.292%; Pks13 thioesterase: -13.65%
* [H][C@@]12CCN(Cc3cc(C)on3)C[C@@]1([H])O[C@H](c1nc(C3CC3)cs1)C2 : Toxoplasma: 17.09%
* COc1ccccc1-n1nc(-c2ccco2)n(CC(=O)NC2CC2)c1=O : MtTrpRS: -3.704%; Toxoplasma: -35.15%; ClpP1P2: 3.564%; CoaBC: -3.68%; Pks13 thioesterase: -0.647%

Once more, the final 3:

Compound,MtTrpRS,Toxoplasma,ClpP1P2,CoaBC,Pks13 thioesterase
CC1CCN(c2ccc(=O)n(CC(=O)N(C)Cc3ccccc3)n2)CC1,1.052,3.048,-2.586,-7.292,-13.65
[H][C@@]12CCN(Cc3cc(C)on3)C[C@@]1([H])O[C@H](c1nc(C3CC3)cs1)C2,-,17.09,-,-,-
COc1ccccc1-n1nc(-c2ccco2)n(CC(=O)NC2CC2)c1=O,-3.704,-35.15,3.564,-3.68,-0.647